At least one structure is not confirmed: it was looked up by name or label, or the drawing left a doubt.
Experiments:
[1] = system: drei Pankreaskrebszelllinien; test: IC50 of triazenes in three pancreatic cancer cell lines (Experiment 4); format: cell-based; settings: the two other pancreatic cell lines (not AsPc-1)
Source text: Verschiedene Triazene wie erfindungsgemäße Verbindungen nach Beispiel 1, DTIC, TMZ sowie Verbindungen nach Präparat 2 und 5 (entsprechend Verbindungen nach Präparat 2 und Beispiel 2a jeweils der WO 2009/004060) sowie Verbindungen nach Beispiel 2 und 33 der DE1793115 wurden in DMSO bzw. Wasser gelöst.

AsPc-1 = test: IC50 of triazenes in pancreatic cancer cell line AsPc-1 (Experiment 4); format: cell-based

**Q.** With `CN(C)/N=N/c1[nH]cnc1C(N)=O` [Dacarbazine] as the compound, how does the “antitumorale Aktivität (IC50) compared with Beispiel 1” value [1] read?
**A.** The value was “deutlich geringere antitumorale Aktivität”.

**Q.** What about the “Wirkung (IC50) compared with Beispiel 1” value (AsPc-1) of the same compound?
**A.** The value was “vergleichbare Wirkung wie Beispiel 1”.

From patent EP2557075A1, “New triazene compounds for treating cancer” (Trin Therapeutics GmbH, priority 2011, dated 2013)
